Results taken from article PMC4222082, “Nitrogen starvation-induced transcriptome alterations and influence of transcription regulator mutants in Mycobacterium smegmatis”.
Construct, isoform or probe ends are uncertain for at least one entry. Tags and fusion partners may be left off the protein sequences shown.

System: T1, His6-AmtR (Mycobacterium smegmatis)
T1 sequence (looked up, limits assumed): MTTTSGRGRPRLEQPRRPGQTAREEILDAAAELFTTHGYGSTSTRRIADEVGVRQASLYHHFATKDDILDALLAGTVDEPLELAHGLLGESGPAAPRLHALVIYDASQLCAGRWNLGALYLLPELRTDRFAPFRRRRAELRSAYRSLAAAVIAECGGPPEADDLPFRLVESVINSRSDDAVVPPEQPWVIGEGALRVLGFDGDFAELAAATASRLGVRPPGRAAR
Assay: EMSA
Settings: 5 mM MgCl2, 2 ug sperm DNA, urea and amino acids 0.5-5 mM had no influence; GlnR: DIG Gel Shift Kit (Roche) buffer, 6% native PAGE, 0.5x TBE; AmtR: 20 mM Tris-HCl pH 7.9, 25 mM KCl, 1 mM DTT, 5 mM MgCl2, 0.5 mg/ml BSA, 5% glycerol; recombinant protein; label: 5'-32P; probe letters rebuilt from the primers and the genome

## CGGCGAACGACTCGAACCGGCCGAGCCGGCGATGCAGTTGTTGGTCGTAACCGAACTCCGCGAGGTCGCGGTGGTCGCCGGACGGGTCGGCCACGTCGGGTCCCGGTGCTGTTGCGCTGCTGGTCATGGGTTTTCTCTCTGGCTAGGGGCGCTGCCGCCAGCTCTTACCTGTCAGATGACAGATAACAATGGGCGCGTGTCCTCGGCGTCACCCGAATGTTTCGTTCATGTAGCCGTCGGTAAGCATTCGGTTGCAGAACCCTCACCGCCCGTGGGCCTGTCACAATCGCCGGTATGCCCGCCCCCGACCTCGTGCAGCGCCACATCGACGCGGCGACCTCGGTGGCCGGTCTGCGCGCCGCCACGGCCGAACTGCCCGCGGCTGCGCGCGAACTCGTCGGCGCGCGTGCCGCGACGGTGGCACATGCGTGGTCGGC (double strand) [msmeg_2184 promoter (AmtR probe)]
  binding result: binds
